Reference: patent publication US20060140889A1
Changes are numbered by the printed parent chain. Results are given in words; binding and its absence hold for the method and conditions named. Some entries that bind do so weakly or less than the wild type.

B1: iMab135-xx-0001 (designed binder, not shown: small tags and cut ends)
chain: MNVQLVESGGNFVENDQDLSLTCRASGYTIGPYCMGWFRQAPNQDSTGVATINMGGGITYYGDSVKERFRIRRDNASNTVTLSMQNLQPQDSANYNCAADSTIYASYYECGHGLSTGGYGYDSRGQGTSVTVSS
B2: iMab137-xx-0001 (designed binder, not shown: small tags and cut ends)
chain: B1 chain with D18S, Q44S, D45R, E67G, R70T, Q85N, N86D, Q90R, N94Q, S129D
B3: iMab136-xx-0001 (designed binder, not shown: small tags and cut ends)
chain: MNVKLVEKGGNFVENDDDLRLTCRAEGYTIGPYCMGWFRQAPNRDSTNVATINMGGGITYYGDSVKERFDIRRDNASNTVTLSMTNLQPSDSASYNCAADSTIYASYYECGHGLSTGGYGYDSRGQGTRVTVSS

target: chicken lysozyme (chicken) (UniProt P00698); assay: ELISA as in Example 8

| binding | Binder |
| --- | --- |
| binds | B1 |
| binds | B2 |
| binds | B3 |
